# The list shows a part of the results.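 How the source made its calls: active = mitochondrial OCR inhibition above 30% at 1 uM; inactive = 30% or less.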 Single values are uncertain, as repeats are few or missing.
# Test system: Toxoplasma gondii RH tachyzoites
# Experiment: inhibition of mitochondrial O2 consumption rate (% inhibition (relative to pre-injection OCR and atovaquone/antimycin A control)); higher = stronger ETC inhibition
# Conditions: 1 µM; injection port (sequential injection order): A
row,Structure (SMILES),inhibition of mitochondrial O2 consumption rate
1,NS(=O)(=O)c1cncc(-c2ccc3nccc(-c4cn[nH]c4)c3n2)c1,inactive: -3.04
2,FC(F)(F)c1cccc(-c2nc3c(NCc4ccncc4)nccc3[nH]2)c1,inactive: -16.9
3,CC(C)(C)CN1C(=O)C(c2ccccc2)(c2ccccc2)N=C1N,inactive: -7.98
4,COc1cccc(CC(=O)N2CCC(n3c(C)nc4ccc(F)cc43)CC2)c1,inactive: -8.21
5,Cc1ccc(NC(=O)CC2COc3ccccc3O2)cc1Cl (configuration not stated),inactive: -7.29
6,COc1ccc(CCN2CCC(NCc3cccc(N(C)C)c3)CC2)cc1,inactive: -27.4
7,Cc1cc2nc(NC(=O)C(C)(C)C)nc(Cl)c2n1Cc1ccc(Cl)cc1,inactive: 14.8
8,Cc1nnc(NCc2cccc(Cl)c2)c2ccccc12,inactive: -7.2
9,O=C(Nc1ccc(N2CCNCC2)nc1)c1oc(-c2ccccc2)nc1C(F)(F)F,inactive: -10.5
10,c1ccc(Oc2ccc(-c3cc(C4CCOCC4)[nH]n3)cc2)cc1,inactive: 4.42
11,CC(C(=O)Nc1ccc2oc(-c3ccncc3)nc2c1)c1ccccc1 (configuration not stated),inactive: 1.99
12,CNC(=O)C1Cc2c([nH]c3cc(Cl)ccc23)C2(CCN(CCc3ccccc3)CC2)N1 (configuration not stated),inactive: -13.4
13,CCc1nc2ccc(C(=O)NCc3ccc4c(c3)OCO4)cn2c1N(C)Cc1cccs1,inactive: 0.892
14,O=C(c1cc2ccccc2o1)N1CCN(Cc2ccc3c(c2)OCO3)CC1,inactive: -3.22
15,CCc1nc2ccccc2n1CC(O)COc1cc(C)ccc1Cl (configuration not stated),inactive: -14.2
16,CN1CCN(c2nccc3nc(-c4ccc(F)c(F)c4)[nH]c23)CC1,inactive: 0.12
17,Nc1nccc2ccc(-c3ccc4nccn4c3)cc12,inactive: -5.31

# Given bar-delimited: part of the list above
row | Structure (SMILES) | inhibition of mitochondrial O2 consumption rate
9 | O=C(Nc1ccc(N2CCNCC2)nc1)c1oc(-c2ccccc2)nc1C(F)(F)F | inactive: -10.5
10 | c1ccc(Oc2ccc(-c3cc(C4CCOCC4)[nH]n3)cc2)cc1 | inactive: 4.42
